# Reference: paper PMC8967655
# Chains of the proteins cited; added tags and fusions are not shown. Residues count along the entry.
# UniProt P60615, residues 22-95: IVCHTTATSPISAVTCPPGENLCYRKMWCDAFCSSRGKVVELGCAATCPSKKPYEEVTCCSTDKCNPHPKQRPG
# UniProt P04756, residues 21-230: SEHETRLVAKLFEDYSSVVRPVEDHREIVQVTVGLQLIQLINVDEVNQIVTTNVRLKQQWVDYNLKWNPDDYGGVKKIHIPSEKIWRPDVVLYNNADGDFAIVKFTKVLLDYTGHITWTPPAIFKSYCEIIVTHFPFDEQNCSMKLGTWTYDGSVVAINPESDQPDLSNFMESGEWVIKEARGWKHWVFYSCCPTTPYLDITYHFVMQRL
# Results are given in words; binding and its absence hold for the method and conditions named. Some entries that bind do so weakly or less than the wild type.
# Target: α-bungarotoxin, biotin conjugate (UniProt P60615)
# Test: pull-down; both purified
substance,measurement,value
GST-tagged nAChR α1 subunit ectodomain (amino acids 21-230) (from UniProt P04756 21-230) (domain or fragment),binding,binds
